Assay results: PMC10202959
Results are given in words; binding and its absence hold for the method and conditions named. Some binding calls cover weakened binding; strength is not graded here. Sequences can lack the tags named with a protein.

The chains behind the UniProt entries cited, without tags or fusion partners. Residues count along the entry.
UniProt P24821, residues 23-2201: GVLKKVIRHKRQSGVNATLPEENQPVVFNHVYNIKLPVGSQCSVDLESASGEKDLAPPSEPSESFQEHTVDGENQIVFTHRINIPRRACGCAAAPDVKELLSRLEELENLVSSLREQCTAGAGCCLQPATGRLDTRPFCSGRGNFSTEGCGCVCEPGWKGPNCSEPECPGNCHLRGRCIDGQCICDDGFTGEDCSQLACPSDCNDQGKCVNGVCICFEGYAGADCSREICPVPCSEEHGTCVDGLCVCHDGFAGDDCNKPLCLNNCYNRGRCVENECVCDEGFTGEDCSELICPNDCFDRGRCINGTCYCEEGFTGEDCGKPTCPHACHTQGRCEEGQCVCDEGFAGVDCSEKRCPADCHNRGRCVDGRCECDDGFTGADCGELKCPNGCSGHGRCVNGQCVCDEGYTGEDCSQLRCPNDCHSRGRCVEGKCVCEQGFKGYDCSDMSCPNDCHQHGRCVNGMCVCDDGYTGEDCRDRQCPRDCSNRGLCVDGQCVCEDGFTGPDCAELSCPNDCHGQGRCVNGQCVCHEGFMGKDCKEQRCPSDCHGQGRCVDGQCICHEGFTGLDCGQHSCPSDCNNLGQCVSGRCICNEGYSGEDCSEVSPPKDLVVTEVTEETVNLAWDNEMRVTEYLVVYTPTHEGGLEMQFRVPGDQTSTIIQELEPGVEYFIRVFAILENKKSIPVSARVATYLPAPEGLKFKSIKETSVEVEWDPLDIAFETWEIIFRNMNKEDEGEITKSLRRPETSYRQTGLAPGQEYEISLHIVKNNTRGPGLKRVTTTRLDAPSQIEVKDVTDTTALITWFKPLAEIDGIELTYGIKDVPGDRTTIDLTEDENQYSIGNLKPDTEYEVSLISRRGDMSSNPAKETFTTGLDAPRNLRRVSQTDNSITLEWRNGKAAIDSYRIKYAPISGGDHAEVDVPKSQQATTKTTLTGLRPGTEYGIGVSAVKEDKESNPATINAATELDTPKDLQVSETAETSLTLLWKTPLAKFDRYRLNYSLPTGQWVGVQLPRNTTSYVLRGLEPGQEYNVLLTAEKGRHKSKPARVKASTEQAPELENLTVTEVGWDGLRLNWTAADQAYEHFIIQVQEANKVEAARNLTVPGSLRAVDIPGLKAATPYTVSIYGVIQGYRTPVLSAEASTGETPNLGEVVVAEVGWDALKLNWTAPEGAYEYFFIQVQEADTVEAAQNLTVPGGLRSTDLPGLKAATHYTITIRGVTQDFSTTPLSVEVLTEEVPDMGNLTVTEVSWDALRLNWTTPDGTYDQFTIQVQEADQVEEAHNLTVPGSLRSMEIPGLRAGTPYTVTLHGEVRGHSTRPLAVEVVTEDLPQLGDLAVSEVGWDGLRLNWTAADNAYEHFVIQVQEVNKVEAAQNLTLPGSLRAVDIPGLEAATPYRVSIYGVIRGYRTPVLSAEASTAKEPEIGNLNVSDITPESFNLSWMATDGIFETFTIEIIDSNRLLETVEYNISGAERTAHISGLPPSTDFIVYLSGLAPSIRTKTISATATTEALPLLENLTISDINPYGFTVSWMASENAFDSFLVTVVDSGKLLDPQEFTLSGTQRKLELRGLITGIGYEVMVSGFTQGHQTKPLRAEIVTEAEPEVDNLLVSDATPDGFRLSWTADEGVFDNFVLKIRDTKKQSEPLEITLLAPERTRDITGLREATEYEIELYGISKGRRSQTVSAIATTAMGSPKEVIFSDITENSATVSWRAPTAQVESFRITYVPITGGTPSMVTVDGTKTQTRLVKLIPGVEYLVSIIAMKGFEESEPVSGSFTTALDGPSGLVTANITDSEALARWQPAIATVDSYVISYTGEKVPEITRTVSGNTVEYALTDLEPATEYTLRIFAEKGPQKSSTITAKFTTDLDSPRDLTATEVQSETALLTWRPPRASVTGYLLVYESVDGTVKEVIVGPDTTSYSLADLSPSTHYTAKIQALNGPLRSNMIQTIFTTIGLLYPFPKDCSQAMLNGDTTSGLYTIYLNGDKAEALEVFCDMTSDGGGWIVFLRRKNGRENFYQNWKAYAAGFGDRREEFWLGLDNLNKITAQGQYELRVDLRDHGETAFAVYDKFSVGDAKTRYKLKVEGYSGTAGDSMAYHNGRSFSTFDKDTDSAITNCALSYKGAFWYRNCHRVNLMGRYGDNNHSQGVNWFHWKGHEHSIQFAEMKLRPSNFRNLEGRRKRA
UniProt P04004, residues 20-478: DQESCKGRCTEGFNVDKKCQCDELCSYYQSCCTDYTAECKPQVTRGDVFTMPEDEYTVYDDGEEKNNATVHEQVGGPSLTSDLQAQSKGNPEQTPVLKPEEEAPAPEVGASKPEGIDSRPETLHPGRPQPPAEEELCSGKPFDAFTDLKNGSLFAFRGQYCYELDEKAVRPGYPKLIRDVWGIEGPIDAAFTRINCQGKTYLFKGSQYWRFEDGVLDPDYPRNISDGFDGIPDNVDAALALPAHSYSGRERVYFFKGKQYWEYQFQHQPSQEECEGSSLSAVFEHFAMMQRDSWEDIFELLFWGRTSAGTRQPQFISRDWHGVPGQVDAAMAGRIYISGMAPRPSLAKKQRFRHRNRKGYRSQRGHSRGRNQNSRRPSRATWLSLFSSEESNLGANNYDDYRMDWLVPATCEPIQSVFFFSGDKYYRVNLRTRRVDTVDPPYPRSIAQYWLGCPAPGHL

Columns and labels:
human tenascin C (human) = human tenascin C (human) (UniProt P24821); assay: ELISA; plates coated with 100 nM ECM protein in PBS; PDGF-BB or IL-1Ra variants at increasing concentrations in PBS-T with 0.1% BSA, 1 h at room temperature; detected with biotinylated antibodies; KD from a one site specific binding model; both purified
[1] = molecular target: human vitronectin (human) (UniProt P04004); assay: as above

binding (human tenascin C (human)): binds
binding [1]: binds
B1: interleukin-1 receptor antagonist (IL-1Ra), wild type (ligand, UniProt P25085 27-178)
chain: RPSGKRPCKMQAFRIWDTNQKTFYLRNNQLIAGYLQGPNIKLEEKIDMVPIDLHSVFLGIHGGKLCLSCAKSGDDIKLQLEEVNITDLSKNKEEDKRFTFIRSEKGPTTSFESAACPGWFLCTTLEADRPVSLTNTPEEPLIVTKFYFQEDQ
